Source: paper doi:10.1101/2025.04.11.648483

By UniProt entry, the sequences of proteins in these tests, tags left out. Where a name states a change or a piece, a line headed by the entry shows the natural chain unless it says otherwise.
UniProt O01819: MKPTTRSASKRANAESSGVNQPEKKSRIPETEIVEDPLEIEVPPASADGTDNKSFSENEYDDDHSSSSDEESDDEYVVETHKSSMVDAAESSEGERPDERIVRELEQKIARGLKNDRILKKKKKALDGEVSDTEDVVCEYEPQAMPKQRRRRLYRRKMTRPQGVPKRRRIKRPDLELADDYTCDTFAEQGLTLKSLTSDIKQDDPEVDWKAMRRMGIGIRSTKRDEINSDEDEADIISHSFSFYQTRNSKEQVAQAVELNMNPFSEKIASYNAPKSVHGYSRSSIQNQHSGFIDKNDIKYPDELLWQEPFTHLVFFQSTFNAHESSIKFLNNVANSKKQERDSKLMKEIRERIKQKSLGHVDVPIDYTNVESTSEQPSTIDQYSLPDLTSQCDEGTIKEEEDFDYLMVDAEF
UniProt A0A0K3AR81: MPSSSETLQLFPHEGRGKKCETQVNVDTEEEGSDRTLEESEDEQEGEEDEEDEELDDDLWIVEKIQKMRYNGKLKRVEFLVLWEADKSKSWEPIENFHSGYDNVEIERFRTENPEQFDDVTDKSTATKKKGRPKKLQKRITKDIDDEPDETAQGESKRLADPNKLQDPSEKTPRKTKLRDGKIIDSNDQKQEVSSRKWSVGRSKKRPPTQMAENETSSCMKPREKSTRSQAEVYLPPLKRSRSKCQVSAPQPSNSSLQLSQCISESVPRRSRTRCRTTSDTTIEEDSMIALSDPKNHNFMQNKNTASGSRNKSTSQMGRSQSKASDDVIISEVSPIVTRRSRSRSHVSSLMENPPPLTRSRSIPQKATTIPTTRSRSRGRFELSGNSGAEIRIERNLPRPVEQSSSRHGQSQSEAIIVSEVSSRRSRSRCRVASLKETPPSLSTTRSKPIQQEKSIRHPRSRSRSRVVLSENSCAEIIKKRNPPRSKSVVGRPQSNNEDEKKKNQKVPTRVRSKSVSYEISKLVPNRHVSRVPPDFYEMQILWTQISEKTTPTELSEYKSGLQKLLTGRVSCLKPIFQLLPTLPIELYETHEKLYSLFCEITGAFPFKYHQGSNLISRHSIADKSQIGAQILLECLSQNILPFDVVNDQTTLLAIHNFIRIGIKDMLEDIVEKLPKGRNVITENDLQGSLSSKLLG

Legend:
Test in all cases: two-hybrid
[1] = target: T1, PRDE-1 (yeast two-hybrid fusion) (C. elegans) (UniProt O17828)
T1 sequence: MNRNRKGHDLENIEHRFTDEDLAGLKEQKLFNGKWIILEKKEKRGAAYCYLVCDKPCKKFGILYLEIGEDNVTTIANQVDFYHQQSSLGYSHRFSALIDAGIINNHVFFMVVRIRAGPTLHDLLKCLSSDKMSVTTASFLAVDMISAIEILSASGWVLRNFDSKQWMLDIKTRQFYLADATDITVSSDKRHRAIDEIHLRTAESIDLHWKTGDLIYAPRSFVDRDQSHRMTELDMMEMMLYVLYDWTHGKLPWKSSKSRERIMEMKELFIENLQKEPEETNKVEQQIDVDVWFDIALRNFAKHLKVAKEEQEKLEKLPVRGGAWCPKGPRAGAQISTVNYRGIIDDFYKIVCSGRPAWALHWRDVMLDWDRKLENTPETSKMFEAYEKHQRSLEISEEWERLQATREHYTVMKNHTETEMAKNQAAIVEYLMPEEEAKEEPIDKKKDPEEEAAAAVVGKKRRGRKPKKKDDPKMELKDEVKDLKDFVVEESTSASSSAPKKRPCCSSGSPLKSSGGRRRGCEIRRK

[2] = target: TOFU-4 (yeast two-hybrid fusion) (C. elegans) (UniProt O01819)
[3] = target: T2, TAF-12 histone-fold domain (yeast two-hybrid fusion) (C. elegans) (UniProt Q9U226)
T2 sequence: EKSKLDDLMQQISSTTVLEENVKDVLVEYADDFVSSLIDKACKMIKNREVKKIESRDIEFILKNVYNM

## TOFU-4 (yeast two-hybrid fusion) (from UniProt O01819)
[1]
  binding: binds

## UAD-2 (yeast two-hybrid fusion) (from UniProt A0A0K3AR81 1-696)
[2]
  binding: binds

## UAD-2 C-terminal domain (yeast two-hybrid fusion) (C. elegans) (domain or fragment)
[3]
  binding: binds

No constants are given. Whether binding was seen depends on the method and setting. A result given as binding can be weak or reduced; the word gives no strength. For part of these data: Tags and fused reporters may be left off the sequences shown.
